Experimental data from article PMC5791181.
No constants are given. Whether binding was seen depends on the method and setting. Binding seen in cells or lysates may run through a third protein. Some results given as binding are weak or reduced against the parent protein; the word gives no strength.

Sequences of proteins named here, by UniProt entry; tags and fusion partners are left off.
UniProt Q8R4B8: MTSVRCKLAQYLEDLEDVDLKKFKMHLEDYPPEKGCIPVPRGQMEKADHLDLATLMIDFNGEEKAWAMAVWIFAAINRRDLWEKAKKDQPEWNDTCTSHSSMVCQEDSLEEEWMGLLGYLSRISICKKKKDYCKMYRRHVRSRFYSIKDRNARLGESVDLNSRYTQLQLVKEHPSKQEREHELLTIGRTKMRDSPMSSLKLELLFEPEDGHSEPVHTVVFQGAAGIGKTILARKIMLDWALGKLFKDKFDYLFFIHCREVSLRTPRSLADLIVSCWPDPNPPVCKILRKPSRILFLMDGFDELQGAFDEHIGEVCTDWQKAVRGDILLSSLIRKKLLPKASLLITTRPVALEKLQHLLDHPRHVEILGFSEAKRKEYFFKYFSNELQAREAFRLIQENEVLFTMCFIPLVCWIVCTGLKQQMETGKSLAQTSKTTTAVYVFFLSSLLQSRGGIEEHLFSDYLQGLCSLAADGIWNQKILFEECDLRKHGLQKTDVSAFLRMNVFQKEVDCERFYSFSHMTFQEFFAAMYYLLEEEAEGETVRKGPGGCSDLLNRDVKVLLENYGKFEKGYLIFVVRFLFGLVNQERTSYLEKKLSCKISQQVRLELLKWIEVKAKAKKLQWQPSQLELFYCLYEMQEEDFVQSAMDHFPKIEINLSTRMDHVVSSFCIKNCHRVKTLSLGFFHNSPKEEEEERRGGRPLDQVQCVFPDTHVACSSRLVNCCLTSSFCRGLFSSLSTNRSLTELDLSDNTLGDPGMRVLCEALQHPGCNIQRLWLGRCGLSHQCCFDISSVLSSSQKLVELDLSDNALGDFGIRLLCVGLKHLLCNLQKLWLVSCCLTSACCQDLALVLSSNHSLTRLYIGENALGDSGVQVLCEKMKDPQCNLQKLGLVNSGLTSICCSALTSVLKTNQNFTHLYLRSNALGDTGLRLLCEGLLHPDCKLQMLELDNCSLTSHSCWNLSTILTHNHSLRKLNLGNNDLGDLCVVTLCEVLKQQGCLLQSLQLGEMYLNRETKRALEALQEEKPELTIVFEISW
UniProt P70658: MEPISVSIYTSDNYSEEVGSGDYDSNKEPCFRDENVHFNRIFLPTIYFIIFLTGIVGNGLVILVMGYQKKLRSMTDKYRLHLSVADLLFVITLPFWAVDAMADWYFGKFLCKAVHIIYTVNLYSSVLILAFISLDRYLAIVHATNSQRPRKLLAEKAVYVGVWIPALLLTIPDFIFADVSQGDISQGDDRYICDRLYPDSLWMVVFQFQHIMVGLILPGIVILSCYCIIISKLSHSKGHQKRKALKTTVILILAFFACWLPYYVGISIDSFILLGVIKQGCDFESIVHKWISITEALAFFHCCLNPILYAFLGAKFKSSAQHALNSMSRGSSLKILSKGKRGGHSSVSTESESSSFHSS

Columns and labels:
[1] = target: T1, Thioredoxin-interacting protein (TXNIP) (mouse (endogenous in spinal cord)) (UniProt Q8BG60); assay: co-IP; spinal cord of sham and pSNL mice; Catch and Release Reversible Immunoprecipitation System kit (Millipore); rabbit/mouse IgG as control; immunoblot
T1 sequence: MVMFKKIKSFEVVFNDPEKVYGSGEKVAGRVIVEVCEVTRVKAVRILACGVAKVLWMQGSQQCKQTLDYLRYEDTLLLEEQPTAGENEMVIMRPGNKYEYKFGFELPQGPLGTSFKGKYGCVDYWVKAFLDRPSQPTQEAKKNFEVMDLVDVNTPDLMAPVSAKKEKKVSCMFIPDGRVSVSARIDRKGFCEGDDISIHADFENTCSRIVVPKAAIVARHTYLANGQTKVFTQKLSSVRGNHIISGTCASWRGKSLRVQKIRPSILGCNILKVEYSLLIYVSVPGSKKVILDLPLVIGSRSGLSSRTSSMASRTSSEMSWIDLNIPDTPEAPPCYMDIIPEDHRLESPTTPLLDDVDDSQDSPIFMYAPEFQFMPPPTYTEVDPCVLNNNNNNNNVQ

[2] = target: NOD-like receptor protein 3 (NLRP3) (mouse (endogenous in spinal cord)) (UniProt Q8R4B8); assay: as above

## NOD-like receptor protein 3 (NLRP3) (from UniProt Q8R4B8 1-1033)
[1]
  binding: binds

## Chemokine CXC receptor 4 (CXCR4) (from UniProt P70658 1-359)
[1]
  binding: binds

B1: Thioredoxin-interacting protein (TXNIP) (protein, UniProt Q8BG60-1 1-397)
chain: MVMFKKIKSFEVVFNDPEKVYGSGEKVAGRVIVEVCEVTRVKAVRILACGVAKVLWMQGSQQCKQTLDYLRYEDTLLLEEQPTAGENEMVIMRPGNKYEYKFGFELPQGPLGTSFKGKYGCVDYWVKAFLDRPSQPTQEAKKNFEVMDLVDVNTPDLMAPVSAKKEKKVSCMFIPDGRVSVSARIDRKGFCEGDDISIHADFENTCSRIVVPKAAIVARHTYLANGQTKVFTQKLSSVRGNHIISGTCASWRGKSLRVQKIRPSILGCNILKVEYSLLIYVSVPGSKKVILDLPLVIGSRSGLSSRTSSMASRTSSEMSWIDLNIPDTPEAPPCYMDIIPEDHRLESPTTPLLDDVDDSQDSPIFMYAPEFQFMPPPTYTEVDPCVLNNNNNNNNVQ
[2]
  binding: binds
